US7141661B2, “Non-steroidal anti-inflammatory drug activated gene with anti-tumorigenic properties” (The United States of America as represented by the …, priority 2000, dated 2006)
Some of these results come from one statement about several compounds together. Some ranges recur; such a range may be that of the whole group of compounds.

Test system: NAG-1
Assay: Northern blot analysis of NAG-1 mRNA expression in HCT-116 cells
Assay type: cell-based, human
Conditions: HCT-116, highest concentrations tested, 24 hr
Protocol: Upon reaching 60–80% confluence in 10 cm plates, the cells were treated at indicated concentrations and times with either different NSAIDs or PPARγ ligands in the absence of serum. Total RNAs were isolated using TRIzol reagent (Life Technologies) according to the manufacturer's protocol. For Northern blot analysis, […] of total RNA was denatured at 55° C. for 15 min and separated in a 1.2% agarose gel containing 2.2 M formaldehyde, and transferred to Hybond-N membrane ([…]). After fixing the membrane by UV, blots were prehybridized in hybridization solution (Rapid-hyb buffer, […]) for 1 hr at 65° C. followed by hybridization with cDNA labeled with [α-^32P]dCTP by random primer extension (DECAprimeII kit, Ambion). The probes used were either full-length NAG-1 fragment or PTGFB clone (generously provided by Dr. Bento-Soar of the University of Iowa). After 4 hr incubation at 65° C., the blots were washed once with 2×SSC/0.1% SDS at RT and twice with 0.1×SSC/0.1% SDS at 65° C. Messenger RNA abundance Was estimated by intensities of the hybridization bands of autoradiographs using Scion Image (Scion). […]
To determine whether other NSAIDs increased apoptosis and NAG-1 expression, tests were conducted to determine whether variants of NSAIDs induced NAG-1 gene expression and NSAID-induced apoptosis. […] Apoptosis detected by PI staining was measured by FACS, as known in the art (FIG. 2A; HCT-116 cells were treated with different NSAIDs (vehicle, 0.2% DMSO; Aspirin, 10 mM; Ibuprofen, 1 mM; Sodium Salicylate, 5 mM; Sulindac Sulfide, 50 μM; Sulindac, 40 μM; Acetaminophen, 100 μM) for 24 hr in the absence of serum. Northern analysis was performed using NAG-1 and β-actin as probes. The open bars represent the relative expression of NAG-1 mRNA over the control (vehicle). The hatched bars represent the relative apoptosis ratio over vehicle treatment by PI staining methods. N=3±S.D.).
In the Table below, HCT-116 cells were treated with different NSAIDs (vehicle, 0.2% DMSO) for 24 hr in the absence of serum. […] Apoptosis ratio by PI staining was measured by FACS. […]

| SMILES | Increase in NAG-1 gene expression |
| --- | --- |
| CC(=O)Oc1ccccc1C(=O)O [Aspirin] | 3–4 fold |
| CC(C)Cc1ccc(C(C)C(=O)O)cc1 (stereo not drawn) [Ibuprofen] | 3–4 fold |
| CSc1ccc(/C=C2/C(C)=C(CC(=O)O)c3cc(F)ccc32)cc1 [Sulindac Sulfide] | 3–4 fold |
